# From US20040067593A1, “Electron paramagnetic resonance method for diagnosis of active nephritis” (priority 2000, published 2004)
# Key:
# [1] = EPR detection of the oxidant in dialysate with DBNBS and its analogues
# [2] = Effect of sulphite on the EPR signal of the DBNBS radical cation (DBNBS reacted with plasma or urine); design: species or system human
# Protocol: The characteristic spectrum of DBNBS-SO3^●− was a 9 line signal with an aN=1.32 mT and aH=0.06 mT (FIG. 8). This was obtained by reacting DBNBS with hydrogen peroxide and horseradish peroxidase. The addition of 10 mM sulphite to the reaction mixture caused the signal to increase by over 100 fold in intensity. The signal could also be obtained by reacting DBNBS with sulphite alone. However, when the DBNBS was reacted with the plasma of patients with renal failure and the urine from a normal individual, only the 3 line signal with an aN=1.32 mT was seen (FIGS. 7 & 9, respectively). The hydrogen hyperfine splitting seen in the spectrum of DBNBS-SO3^●− was absent. […] Therefore, we confirmed that DBNBS-SO3^●− and the DBNBS radical cation generated by renal patients' plasma or normal urine were completely different radicals.
# Addition of sulphite to the mixture of DBNBS and plasma or urine decreased the signal height of the DBNBS radical cation. This could affect the determination of the oxidant in biological samples if there was sulphite contamination in the DBNBS preparation or endogenous sulphite in the biological sample itself. Therefore the dose response effect on addition of sulphite to the reaction mixture was investigated. […]
# [3] = spin trap concentration 2.5 mM, relative to DBNBS at 1.2 mM
SMILES,"% of DBNBS signal [1, 3]",other results
"O=Nc1c(Br)cc(S(=O)(=O)O)cc1Br [DBNBS, 3,5-dibromo-4-nitrosobenzene sulphonate]",–,% of DBNBS signal ([1]; spin trap concentration 1.2 mM): 100.0%
[2H]c1c(Br)c([15N]=O)c(Br)c([2H])c1S(=O)(=O)[O-].[Na+] [DBNBS-d2-^15N],181.1%,–
[2H]c1c(Br)c(N=O)c(Br)c([2H])c1S(=O)(=O)[O-].[Na+] [DBNBS-d2],122.0%,–
"O=Nc1c(Cl)cc(S(=O)(=O)O)cc1Cl [DCNBS, 3,5-dichloro-4-nitrosobenzene sulphonate]",101.0%,–
O=[15N]c1c(Br)cc(S(=O)(=O)[O-])cc1Br.[Na+] [^15N-DBNBS],156.5%,–
"O=S([O-])[O-].[K+].[K+] [sulphite, dipotassium sulphite]",–,effect on signal height (DBNBS with plasma of renal failure patients or normal urine) ([2]; addition of 1 mM and 10 mM sulphite): caused a decrease in signal height; effect on the 3 line signal of the DBNBS radical cation ([2]; final concentration of 2 mM sulphite in the reaction mixture): completely abolished
